Numbering of substitutions follows the chain as printed. No constants are given. Whether binding was seen depends on the method and setting. Some entries that bind do so weakly or less than the wild type.
Tests used:
[1] = target: T1, RGMa in mouse cortical neurons (mouse) (UniProt Q6PCX7); assay: western blot of mouse cortical neuron lysates
T1 sequence (looked up): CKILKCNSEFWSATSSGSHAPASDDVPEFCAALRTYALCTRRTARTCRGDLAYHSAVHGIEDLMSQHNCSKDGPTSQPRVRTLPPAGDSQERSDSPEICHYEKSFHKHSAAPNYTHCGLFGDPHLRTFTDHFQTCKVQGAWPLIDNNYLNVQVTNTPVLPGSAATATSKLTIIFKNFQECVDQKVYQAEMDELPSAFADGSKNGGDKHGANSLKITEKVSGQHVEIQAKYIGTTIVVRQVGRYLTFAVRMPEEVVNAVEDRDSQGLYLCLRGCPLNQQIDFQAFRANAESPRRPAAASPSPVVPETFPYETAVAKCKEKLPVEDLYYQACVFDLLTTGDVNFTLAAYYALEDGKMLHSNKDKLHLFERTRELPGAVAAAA

[2] = target: T1, RGMa in mouse cortical neurons (mouse); assay: immunostaining of cultured mouse primary cortical neurons

B1: AE12-1 (antibody, V domains shown)
VH: EVQLVQSGAEVKKPGASVKVSCKASGYTFTSHGISWVRQAPGQGLDWMGWISPYSGNTNYAQKLQGRVTMTTDTSTSTAYMELSSLRSEDTAVYYCARVGSGPYYYMDVWGQGTLVTVSS
VL: QSALTQPRSVSGSPGQSVTISCTGTSSSVGDSIYVSWYQQHPGKAPKLMLYDVTKRPSGVPDRFSGSKSGNTASLTISGLQAEDEADYYCCSYAGTDTLFGGGTKVTVL
[1]
  binding: binds

B2: AE12-1-Y (antibody, V domains shown)
VH: B1 VH
VL: B1 VL with C91Y
[1]
  binding: binds
[2]
  binding: binds

Reference: patent US20250304672A1
